In PubChem BioAssay AID623959 (National Center for Advancing Translational Sciences (NCATS), 2012):
The whole screen tested about 1,400 compounds, of which fewer than 10 were called active. Inconclusive results, whose numbers are uncertain, are shown with a selection of clear calls. The call rests on the fitted dose curve; in most records, active means well fitted curve in the direction sought with a large enough effect; inconclusive means small, poorly fitted or top-dose-only effect, or another doubt; inactive means no such curve, though single readings can be large or run the other way. Potencies beside an inconclusive call are fits to weak or partial responses and may not hold up.

Amino acid sequences for entries named in this document (tags omitted).
UniProt Q8NER1, whole entry, looked up: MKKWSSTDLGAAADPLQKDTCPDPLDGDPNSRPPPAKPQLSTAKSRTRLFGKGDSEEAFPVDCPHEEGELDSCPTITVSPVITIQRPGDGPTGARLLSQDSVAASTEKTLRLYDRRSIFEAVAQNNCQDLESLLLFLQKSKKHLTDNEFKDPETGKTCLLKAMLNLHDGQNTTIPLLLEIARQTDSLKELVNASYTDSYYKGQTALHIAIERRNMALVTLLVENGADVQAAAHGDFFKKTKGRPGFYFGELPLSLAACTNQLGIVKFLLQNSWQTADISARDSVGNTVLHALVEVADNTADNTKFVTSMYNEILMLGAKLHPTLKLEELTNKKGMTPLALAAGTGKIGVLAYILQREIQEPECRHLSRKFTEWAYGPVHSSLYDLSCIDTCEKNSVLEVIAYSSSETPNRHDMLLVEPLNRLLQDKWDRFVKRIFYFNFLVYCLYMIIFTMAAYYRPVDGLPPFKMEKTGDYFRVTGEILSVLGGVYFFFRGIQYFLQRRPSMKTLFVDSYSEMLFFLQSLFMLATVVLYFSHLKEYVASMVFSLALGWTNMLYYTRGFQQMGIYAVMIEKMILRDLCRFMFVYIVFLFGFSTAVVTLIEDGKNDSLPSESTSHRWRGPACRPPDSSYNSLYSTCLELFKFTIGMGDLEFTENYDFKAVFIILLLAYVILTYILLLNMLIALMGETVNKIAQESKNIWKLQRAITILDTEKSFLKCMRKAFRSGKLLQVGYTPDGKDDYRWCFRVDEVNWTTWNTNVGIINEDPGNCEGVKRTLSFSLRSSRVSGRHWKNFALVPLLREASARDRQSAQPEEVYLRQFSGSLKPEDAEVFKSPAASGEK

Target: Transient receptor potential cation channel subfamily V member 1 (Homo sapiens) (UniProt Q8NER1)
Assay: qHTS Assay for Compounds that Act as Potentiators of the Vanilloid Receptor 1: Hit Validation; on activity change, positive = potentiation: % of control where 0% means no effect
Settings: TRPV1-expressing cells, Fluo-8 calcium influx, capsaicin EC20; series mostly up to 42.1 µM; activity change, positive = potentiation: at the top concentration
Method in brief: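 Calcium influx via Fluo-8 fluorescence (480/520 nm) on FDSS: 10 s baseline, 3 min compound read, 2 min read after EC20 capsaicin. TRPV1-expressing cells plated 2000/well, grown overnight at 35.5 °C.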
Potency means the concentration at half of the fitted maximal effect.

Structure (SMILES) | Potency | activity change, positive = potentiation
Cc1csc2c(=O)sc(NC(=O)c3ccc(F)cc3Cl)nc12 | inconclusive: 101 µM [activator, partial curve] | –
COc1cc(/C=N/NC(=O)CCc2c(C)n[nH]c2C)cc(OC)c1OC | inconclusive: 0.115 µM [activator, full curve, poor fit] | –
CCOC(=O)[C@H]1[C@H]2COc3ccc(OC)cc3[C@@H]2N2C(=O)c3ccc(F)cc3NC(=O)[C@@]12C | inconclusive: 161 µM [activator, partial curve, poor fit] | –
O=C(CSc1ccc(-c2ccccc2)nn1)N1CCN(c2ccccc2)CC1 | inconclusive: 5.08 µM [activator, full curve, poor fit] | –
CCc1c(C(C)=O)oc2ccc3c(C)cc(=O)oc3c12 | inconclusive: 16.3 µM [activator, full curve, poor fit] | –
CC(=O)c1cccc(NC(=S)NCCc2ccc(Cl)cc2)c1 | – | inactive: -37.8%
COc1ccc(S(=O)(=O)N2CC=C(C(=O)Nc3ccc(NC(C)=O)cc3)CC2)cc1 | inconclusive: 0.648 µM [activator, full curve, poor fit] | –
Cc1cc(C)c(NC(=O)C[N+](C)(C)CC(O)COc2cccc3ccccc23)c(C)c1 (stereo not drawn) | inconclusive: 51.5 µM [activator, single point] | –
CCOc1ccc(CCNC(=O)Nc2ccccc2)cc1OCC | inconclusive: 1.29 µM [activator, partial curve, poor fit] | –
CCOC(=O)N1CCN(CCC(=O)Nc2cccc(Cl)c2C)CC1 | – | inactive: -5.78%
C/C(=N\NC(=S)NCc1ccccc1)c1ccc(C)o1 | inconclusive: 16.3 µM [activator, partial curve, poor fit] | –
COc1ccc(-c2cc(C(F)(F)F)n3ncc(C(=O)N4CCCCC4c4cccnc4)c3n2)cc1 (stereo not drawn) | inconclusive: 0.409 µM [activator, full curve, poor fit] | –
CCN1C(=O)c2cccc3c(NC(=O)c4ccc(OC)c(OC)c4)ccc1c23 | inconclusive: 5.78 µM [activator, partial curve, poor fit] | –
CC(=O)Nc1ccc(NC(=O)C(C)OC(=O)CCCc2c[nH]c3ccccc23)cc1 (stereo not drawn) | inconclusive: 16.3 µM [activator, single point] | –
COc1ccc(C(CC(=O)N2CCCC(C)C2)c2c(O)cc(OC)cc2OC)cc1 (stereo not drawn) | inconclusive: 4.09 µM [activator, single point] | –
CSc1ccc(N/N=C(/C#N)S(=O)(=O)C(C)(C)C)cc1 | inconclusive: 29 µM [activator, full curve, poor fit] | –
O=C(NNC(=S)NCCc1ccccc1)c1ccc(Br)s1 | inconclusive: 4.53 µM [activator, full curve, poor fit] | –
COc1ccc(-c2nn(CC(=O)Nc3ccc(Cl)c(Cl)c3)c(=O)c3ccccc23)cc1 | inconclusive: 5.78 µM [activator, single point] | –
CCCSc1ccc(-c2nn(-c3ccccc3)cc2/C=C(/C#N)C(=O)N2CCOCC2)cc1 | inconclusive: 50.8 µM [activator, partial curve] | –
Cc1c(Cl)cccc1-n1c(-c2cccnc2)n[nH]c1=S | inconclusive: 4.59 µM [activator, single point] | –
Cc1cc(-n2nc(C)cc2C)nc(NS(=O)(=O)c2ccccc2Cl)n1 | inconclusive: 20.5 µM [activator, partial curve, poor fit] | –
O=C(Cc1ccc(Cl)cc1)Nc1ccc(C(=O)N2CCOCC2)cc1 | inconclusive: 1.63 µM [activator, full curve, poor fit] | –
Nc1n[nH]c(N)c1N=Nc1ccc(Cl)cc1 | inconclusive: 0.0036 µM [activator, full curve, poor fit] | –
NS(=O)(=O)c1ccc(CNC(=O)CCCSc2ccccc2)cc1 | inconclusive: 20.2 µM [activator, full curve, poor fit] | –
C/C=C\C=C\C(=O)Nc1cccc(C2=NOC3(C2)C[C@@H](C(N)=O)N(C(=O)C(c2ccccc2)c2ccccc2)C3)c1 (stereo partly drawn) | inconclusive: 0.515 µM [activator, full curve, poor fit] | –

Structure (SMILES) | Potency | activity change, positive = potentiation
O=C(COC(=O)/C=C/c1ccc(OC(F)F)cc1)NC1CCCCC1 | inconclusive: 2.3 µM [activator, partial curve] | –
COc1cccc(NS(=O)(=O)c2ccc(Br)s2)c1 | inconclusive: 5.78 µM [activator, single point] | –
CC(=O)Oc1ccc(/C=C/c2nc3ccccc3c(=O)o2)cc1 | – | inactive: -8.54%
COc1ccc(C2c3[nH]c4ccccc4c3CCN2C(=O)c2ccccc2C(C)=O)c(F)c1 (stereo not drawn) | inconclusive: 2.58 µM [activator, full curve, poor fit] | –
COc1ccc(C(=O)N(C)C2CCCN(Cc3ccccc3F)C2)cc1OC (stereo not drawn) | – | inactive: -1.05%
COc1ccc(Cl)c2sc(NC(=O)C3=COCCO3)nc12 | inconclusive: 11.4 µM [activator, partial curve, poor fit] | –
CCOc1ccc(S(=O)(=O)NCCC(=O)Nc2ccncc2)cc1 | inconclusive: 6.48 µM [activator, full curve, poor fit] | –
O=C(CNC(=O)c1ccc(Cl)cc1)c1ccc(Br)cc1 | inconclusive: 5.78 µM [activator, single point] | –
CCc1ccc(OC(=O)c2ccn(CC)n2)cc1 | inconclusive: 25.8 µM [activator, single point] | –
O=S(=O)(c1ccc2c(c1)OCCO2)N1CCN(c2cccc(Cl)c2)CC1 | – | inactive: 4.01%
O=C(NCCc1c[nH]c2ccccc12)OCCCCOC(=O)NCCc1c[nH]c2ccccc12 | inconclusive: 22.7 µM [activator, partial curve, poor fit] | –
O=C(O)c1ccccc1NS(=O)(=O)c1ccc2ccccc2c1 | inconclusive: 0.816 µM [activator, full curve] | –
Cc1ccccc1CN1CCN(C/C=C/c2ccccc2)CC1 | inconclusive: 25.8 µM [activator, single point] | –
CS(=O)(=O)Nc1nc2ccccc2[nH]1 | – | inactive: -7.67%
O=C(CNc1cccc(S(=O)(=O)N2CCOCC2)c1)Nc1cccc(Br)c1 | inconclusive: 404 µM [activator, partial curve, poor fit] | –
Cc1ccc(N(C(C)C(=O)N2CCCC2)S(C)(=O)=O)cc1 (stereo not drawn) | inconclusive: 5.78 µM [activator, partial curve, poor fit] | –
Cn1cnnc1SCC(=O)Nc1ccc(OC(F)F)cc1 | inconclusive: 29 µM [activator, single point] | –
O=C(Cn1ccn(-c2ccc(F)c(Cl)c2)c(=O)c1=O)NCCc1ccccc1 | inconclusive: 0.0258 µM [activator, full curve, poor fit] | –
CCC1Oc2ccccc2N(CC(=O)NCCCN2CCN(c3ccc(OC)cc3)CC2)C1=O (stereo not drawn) | inconclusive: 6.48 µM [activator, single point] | –
O=c1c(/C=N/OCc2ccc(Cl)cc2Cl)c[nH]n1-c1cccc(Cl)n1 | inconclusive: 255 µM [activator, partial curve, poor fit] | –
CCN(CC)S(=O)(=O)c1cccc(C(=O)N/N=C/c2cccc(O)c2O)c1 | inconclusive: 29 µM [activator, partial curve, poor fit] | –
CCOC(=O)c1sc(-c2ccccc2)cc1NC(=O)Nc1ccccc1 | inconclusive: 1.8 µM [activator, full curve] | –
COc1ccc(N=Nc2c(C)[nH][nH]c2=O)cc1 | – | inactive: 0.545%
CS(=O)(=O)N1CCc2cc(C(=O)Nc3ccc(Br)cc3)ccc21 | inconclusive: 202 µM [activator, partial curve, poor fit] | –
CCC1CCCCN1C(=O)c1c(-c2ccccc2)noc1C (stereo not drawn) | inconclusive: 25.8 µM [activator, partial curve, poor fit] | –

As entered above:
Value for O=C(CSc1ccc(-c2ccccc2)nn1)N1CCN(c2ccccc2)CC1 under Potency: inconclusive: 5.08 µM [activator, full curve, poor fit]
Value for CC(=O)c1cccc(NC(=S)NCCc2ccc(Cl)cc2)c1 under activity change, positive = potentiation: inactive: -37.8%
Value for CS(=O)(=O)N1CCc2cc(C(=O)Nc3ccc(Br)cc3)ccc21 under Potency: inconclusive: 202 µM [activator, partial curve, poor fit]
Value for CCN1C(=O)c2cccc3c(NC(=O)c4ccc(OC)c(OC)c4)ccc1c23 under Potency: inconclusive: 5.78 µM [activator, partial curve, poor fit]

Remaining list, next part.

Structure (SMILES) | Potency | activity change, positive = potentiation
CC(Sc1n[nH]c(=O)n1Cc1ccccc1)C(=O)NC1CCCCC1C (stereo not drawn) | inconclusive: 4.09 µM [activator, partial curve, poor fit] | –
COc1ccc([C@@H]2CC=C(C(=O)O)[C@H](c3cccc(Cl)c3)N2S(=O)(=O)c2ccc(Cl)cc2)cc1 | – | inactive: -6.72%
CCCCNC(=O)COC(=O)CCC(=O)c1cccs1 | inconclusive: 29 µM [activator, partial curve, poor fit] | –
O=c1[nH]cnc2scc(-c3ccc(-c4ccccc4)cc3)c12 | inconclusive: 0.0092 µM [activator, full curve, poor fit] | –
CCOC(=O)C1=C(O)C(=O)N(CCCn2ccnc2)C1c1ccc(C)cc1 (stereo not drawn) | – | inactive: 6.89%
C=C(C)c1cccc(C(C)(C)NC(=O)Nc2cccnc2)c1 | – | inactive: -37.9%
CC/C=C/C(=O)N1CC2(CC(c3cccc(NC(=O)COc4ccc(Cl)cc4)c3)=NO2)C[C@H]1C(N)=O (stereo partly drawn) | inconclusive: 20.2 µM [activator, partial curve, poor fit] | –
COc1nc(NCCO)nc(Nc2ccccc2F)n1 | inconclusive: 18.3 µM [activator, single point] | –
COc1ccc(CCNc2ccc(N3C(=O)CC(C)C3=O)cc2[N+](=O)[O-])cc1OC (stereo not drawn) | inconclusive: 2.86 µM [activator, partial curve, poor fit] | –
CO/N=C/C(=N\Nc1ccc(OC)cc1)C(=O)c1ccc(F)cc1 | inconclusive: 3.65 µM [activator, partial curve, poor fit] | –
Cc1sc2ncn(CC(=O)Nc3cccc(S(N)(=O)=O)c3)c(=O)c2c1-c1ccccc1 | – | inactive: -4.7%
Cc1cccc(NC(=S)NCC(c2cccnc2)N(C)C)c1C (stereo not drawn) | – | inactive: 5.7%
CCOc1ccc(NC(=O)CN(c2cccc(C(F)(F)F)c2)S(C)(=O)=O)cc1 | inconclusive: 5.78 µM [activator, single point] | –
O=C(Nc1cccnc1)c1cccc(S(=O)(=O)Nc2ccccc2F)c1 | inconclusive: 5.78 µM [activator, full curve, poor fit] | –
O=C1NC(=S)S/C1=C/c1ccc(N2CCOCC2)o1 | inconclusive: 50.8 µM [activator, partial curve, poor fit] | –
COc1ccc(Cc2c(N)nc(C)nc2N)cc1 | – | inactive: -6.3%
COc1cccc2cc(C(C)N(CCCN3CCOCC3)C(=O)Nc3ccc(Cl)cc3)oc12 (stereo not drawn) | inconclusive: 11.4 µM [activator, full curve, poor fit] | –
CCO[C@H]1OC(C(=O)NC2CC2)=C[C@@H](c2c[nH]c3ccccc23)[C@@H]1CCCO | – | inactive: -2.5%
O=C(N/N=C/CCc1ccccc1)C1CCCCC1 | inconclusive: 0.0816 µM [activator, full curve, poor fit] | –
COc1ccc(C(=O)Nc2c(C)csc2C(=O)O)cc1 | inconclusive: 5.78 µM [activator, single point] | –
O=C1c2ccc(Oc3ccc([N+](=O)[O-])cc3)cc2C(=O)N1CCCO | – | inactive: -2.6%
CC(C)c1nnc(NC(=O)CCC(=O)N2CCN(c3cccc(Cl)c3)CC2)s1 | inconclusive: 0.145 µM [activator, full curve, poor fit] | –
O=C(N/N=C/c1ccccc1F)c1cccc(NC(=O)c2ccccc2Cl)c1 | inconclusive: 29 µM [activator, single point] | –
